No constants are given. Whether binding was seen depends on the method and setting. In cells and extracts the contact can be indirect. Some entries that bind do so weakly or less than the wild type. Tags and fused reporters may be left off the sequences shown.
Target: T1, ISCA1-Flag (mouse ISCA1 with a C-terminal Flag epitope) (mouse) (UniProt Q9D924)
T1 sequence: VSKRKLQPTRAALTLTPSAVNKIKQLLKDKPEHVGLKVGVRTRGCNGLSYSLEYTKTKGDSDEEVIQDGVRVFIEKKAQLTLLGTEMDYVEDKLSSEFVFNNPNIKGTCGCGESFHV
Assay: co-IP; Flag M2 resin IP from mitochondria-enriched extracts of N2a cells transfected with ISCA1-Flag, ISCA2-Flag or IBA57-Flag, versus control IP; western blot of the eluates

B1: NFU1 (endogenous, N2a) (protein, UniProt Q9QZ23 30-255)
chain: FKKQPLHQYVRRPLFPLRAPLCNTVRFMFIQTQDTPNPNSLKFIPGKPVLETRTMDFPTPAAAFRSPLARQLFRIEGVKSVFFGPDFITVTKENEELDWNLLKPDIYATIMDFFASGLPLVTEETPPPPGEAGSEEDDEVVAMIKELLDTRIRPTVQEDGGDVIYRGFEDGIVRLKLQGSCTSCPSSIITLKSGIQNMLQFYIPEVEGVEQVMDDDESDEKEANSS
**Q.** For B1, which binding is on record?
**A.** binds
